# PubChem BioAssay (NCATS)
# Some of the results follow. These are further read-outs of the screen, such as a control signal, another cell line or another target. No call is given for them. Most of these compounds were active or inconclusive in the main read-out, so they are no random draw. The note in brackets gives the kind of curve behind each potency; many fits are weak.
# Experiment: qHTS for identification of novel therapeutic agents for treatment of microphthalmiaassociated transcription factor (MiT) renal cell carcinoma (RCC) (AID 1963991)
# Conditions: TFE3-RCC viability, CellTiter-Glo, 48 h; measured here: UOK124 cell viability
# Outline: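 Three TFE3-fusion RCC lines (UOK109, UOK124, UOK145), 500 cells/well in complete medium, were treated with MIPE 4.0 compounds for 48 hours at 37 C. Viability was by CellTiter-Glo luminescence, normalized to DMSO (100%) and empty wells (0%); curves fitted over 11 concentrations.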
row,Structure (SMILES),AC50
1,Cc1c(C(=O)NN2CCCCC2)nn(-c2ccc(Cl)cc2Cl)c1-c1ccc(Cl)cc1,"33.2 µM [falling, single point]"
2,Cc1cc2c(C(C)C)c(O)c(O)c(C=O)c2c(O)c1-c1c(C)cc2c(C(C)C)c(O)c(O)c(C=O)c2c1O,"20.9 µM [falling, partial curve]"
3,COC(=O)Nc1nc2ccc(S(=O)c3ccccc3)cc2[nH]1 (stereo not given),"18.7 µM [falling, partial curve]"
4,CN(C)C(=O)C(CCN1CCC(O)(c2ccc(Cl)cc2)CC1)(c1ccccc1)c1ccccc1,"16.6 µM [falling, partial curve]"
5,Clc1ccc(C(Cn2ccnc2)OCc2ccc(Sc3ccccc3)cc2)c(Cl)c1 (stereo not given),"23.5 µM [falling, partial curve]"
6,Clc1ccc(C(Cn2ccnc2)OCc2c(Cl)cccc2Cl)c(Cl)c1 (stereo not given),"37.2 µM [falling, single point]"
7,O=C(c1ccc(OCCN2CCCCC2)cc1)c1c(-c2ccc(O)cc2)sc2cc(O)ccc12,"20.9 µM [falling, partial curve]"
8,Cc1ccc(Nc2nccc(N(C)c3ccc4c(C)n(C)nc4c3)n2)cc1S(N)(=O)=O,"16.6 µM [falling, partial curve]"
9,NC1(c2ccc(-c3nc4ccn5c(=O)[nH]nc5c4cc3-c3ccccc3)cc2)CCC1,"23.5 µM [falling, partial curve]"
10,OCCN1CCN(CCCN2c3ccccc3Sc3ccc(C(F)(F)F)cc32)CC1,"20.9 µM [falling, partial curve]"
11,CC(=O)Oc1ccccc1C(=O)Nc1ncc([N+](=O)[O-])s1,"27 µM [falling, partial curve]"
12,CCCS(=O)c1ccc2nc(NC(=O)OC)[nH]c2c1 (stereo not given),"23.5 µM [falling, partial curve, poor fit]"
13,CCCCc1oc2ccc(NS(C)(=O)=O)cc2c1C(=O)c1ccc(OCCCN(CCCC)CCCC)cc1,"11.8 µM [falling, partial curve]"
14,C1CCC(C(CC2CCCCN2)C2CCCCC2)CC1 (stereo not given),"0.935 µM [falling, full curve, poor fit]"
15,O=C(O)c1ccc(-n2nc(-c3ccccc3O)nc2-c2ccccc2O)cc1,"23.5 µM [falling, single point]"

# Two entries drawn at random from those above, as already listed:
row,Structure (SMILES),AC50
7,O=C(c1ccc(OCCN2CCCCC2)cc1)c1c(-c2ccc(O)cc2)sc2cc(O)ccc12,"20.9 µM [falling, partial curve]"
10,OCCN1CCN(CCCN2c3ccccc3Sc3ccc(C(F)(F)F)cc32)CC1,"20.9 µM [falling, partial curve]"
